The nature of this experiment: qHTS Assay for Lipid Storage Modulators in Drosophila S3 Cells.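 For cell number change: cells counted by Cell Tracker Red CMTPX staining in the red channel.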 The conditions noted are these: BODIPY lipid droplet fluorescence, 18-24 h; for cell number change: measured here: cell count max response, cells fed with added oleic acid. A digest of the protocol:
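Laser-scanning cytometry quantifies lipid droplet accumulation (500–530 nm total intensity; droplet/cell object ratio) in oleic acid-fed (400 uM added) Drosophila S3 cells treated with a concentration series. 20 uM Triacsin C defined 100% inhibition.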

Where [1] appears, read: measured here: cell number channel AC50, cells fed with added oleic acid.
[2] abbreviates: measured here: lipid fluorescence (Fed channel) AC50, cells fed with added oleic acid.

The list shows a part of the results. The main result of the screen is listed elsewhere. These columns were measured beside it and carry no call. The list favours compounds with an active or inconclusive main result. The note in brackets gives the kind of curve behind each potency; many fits are weak.

What is called AC50 is the concentration giving half of the maximal activity seen. For `COc1ccccc1N(CC(N)=O)S(=O)(=O)c1ccc(C)cc1`, the cell number change is -34%. The AC50 under setting [1] was 29.1 µM [falling, single point]. For the same compound, the AC50 under setting [2] was 32.6 µM [falling, single point].
As to `CC1CN(CC(O)COc2ccc(C(C)C)cc2)CC(C)O1` (stereo unspecified), under setting [1], the concentration at half-maximal activity (AC50) was 6.51 µM [rising, single point].
Regarding `CC(=O)Nc1ccc(S(=O)(=O)N2CCN(Cc3csc(C)n3)CC2)cc1`, the cell number change stood at 15.3%. Besides, under setting [1], the half-maximal activity concentration (AC50) was 0.731 µM [rising, full curve, poor fit].
Regarding `N#CCCn1cc(/C=C/C(=O)O)c(-c2ccc(F)cc2)n1`, the cell number change was determined as 50.9%. In addition, the AC50 under setting [1] is 18.4 µM [rising, partial curve, poor fit]. The half-maximal activity concentration (AC50) under setting [2] is 20.6 µM [rising, single point].
`Cc1ccc(CS(=O)Cc2ccc(C(=O)N3CCN(c4ccccn4)CC3)o2)cc1` (stereo unspecified): under setting [2], the AC50 was 5.8 µM [falling, full curve, poor fit].
As for `CCc1cccc(CC)c1NC(=O)C1CC(=O)N(c2ccc3c(c2)OCCO3)C1` (stereo unspecified), the cell number change stood at 34.9%. Moreover, the half-maximal activity concentration (AC50) under setting [1] is 5.17 µM [rising, single point]. The half-maximal activity concentration (AC50) under setting [2] was 6.51 µM [falling, single point].
Regarding `O=C(COc1ccc2cc(Br)ccc2c1)N1CCCC1`, the cell number change stood at 8.11%. For the same compound, the AC50 under setting [2] was 29.1 µM [falling, single point].
For the compound `CC(=O)N1CCC(N(CCN2CCOCC2)C(=S)Nc2cc(C)cc(C)c2)CC1`, the cell number change worked out at 30.1%.
Take `S=C(NCCN(C1CCCCC1)C1CCCC1)Nc1cccc(Cl)c1`: the cell number change was -69.4%. Moreover, the AC50 under setting [1] is 29.1 µM [falling, single point]. In addition, under setting [2], the half-maximal activity concentration (AC50) was 29.1 µM [falling, single point].
`N#Cc1cc2c(nc1SCc1ccccc1)CCCCC2`: the cell number change was -18.7%.
Consider `COc1ccc(N2C(=O)CC(N3CCN(c4ccc(S(=O)(=O)N5CCCC5)cc4)CC3)C2=O)cc1` (stereo unspecified), for which the cell number change was -9.71%. Under setting [2], the AC50 is 6.51 µM [falling, single point].
Turning to `NC(=O)CC(NC(=O)Cc1ccc(Cl)cc1)c1ccc(NCCOc2ccccc2)c([N+](=O)[O-])c1` (stereo unspecified), the cell number change was found to be 90.1%. In addition, the AC50 under setting [1] is 25.9 µM [rising, partial curve, poor fit].
For `Cc1ccc2[nH]c3c(=O)n(CC(=O)N4CC(C)CC(C)C4)ncc3c2c1` (stereo unspecified), the cell number change was found to be 25.2%. Further, the AC50 under setting [1] was 0.13 µM [rising, full curve, poor fit]. Also, under setting [2], the AC50 is 29.1 µM [falling, single point].
As for `O=C(c1ccccc1)c1ccccn1`, the cell number change was -34.7%. Besides, the AC50 under setting [1] was 16.4 µM [falling, single point]. For the same compound, the AC50 under setting [2] is 29.1 µM [falling, single point].
Consider `Oc1ccccc1N1CCN(Cc2ncc(-c3ccccc3)o2)CC1`, for which the cell number change came out at 21.4%. Besides, the AC50 under setting [1] was 0.517 µM [rising, full curve, poor fit]. The AC50 under setting [2] is 29.1 µM [falling, single point].
In the case of `COc1cc2c(cc1[N+](=O)[O-])n(C(C)C)c(=O)n2C(C)C`, the cell number change is -23.9%. Moreover, the AC50 under setting [2] is 18.4 µM [falling, single point].
For `COc1ccc(S(=O)(=O)Nc2ccc3c(c2)OCO3)cc1C(=O)O`, the cell number change is 11.4%. Moreover, the concentration at half-maximal activity (AC50) under setting [2] was 29.1 µM [rising, single point].
With `Cc1nn(-c2ccccc2)c(C)c1CN(C)C(=O)c1ccc(S(=O)(=O)NCc2ccco2)cc1`, the cell number change was -8.43%. Moreover, under setting [2], the half-maximal activity concentration (AC50) was 29.1 µM [rising, single point].
In the case of `O=C(OCc1ccccc1)/C(=C/c1ccccc1Cl)NC(=O)c1ccco1`, the cell number change is -14.2%. Also, the concentration at half-maximal activity (AC50) under setting [2] is 3.26 µM [rising, single point].
For the compound `CC/C(=N\O)c1ccc(O)c(OC)c1`, the cell number change is -26.4%. Moreover, under setting [1], the AC50 is 0.164 µM [falling, full curve]. Besides, under setting [2], the concentration at half-maximal activity (AC50) was 0.731 µM [falling, full curve].
With `CSCCC(NC(=O)/C(=C/c1ccc2c(c1)OCO2)NC(=O)c1cccc([N+](=O)[O-])c1)C(=O)O` (stereo unspecified), the cell number change amounted to 25.3%. For the same compound, the AC50 under setting [1] is 0.651 µM [rising, full curve, poor fit]. Further, under setting [2], the AC50 is 0.259 µM [rising, full curve, poor fit].
As to `O=C(c1ccc(S(=O)(=O)N2CCCCCC2)cc1)N(c1ccccn1)C1CCCCC1`, the cell number change stood at 35.5%. Under setting [1], the AC50 was 7.31 µM [rising, partial curve, poor fit].
As for `Cc1[nH]nc2nc(SCC(=O)NCC3CCCO3)n(-c3ccc(Br)cc3)c(=N)c12` (stereo unspecified), the cell number change is -25.8%.
As to `CCCCNC(=S)N1CCN(Cc2ccc3c(c2)OCO3)CC1`, the cell number change is -18.9%. The AC50 under setting [2] was 2.59 µM [rising, partial curve].
Consider `O=C(c1cc2cc([N+](=O)[O-])ccc2oc1=O)N1CCN(c2ncccn2)CC1`, for which the cell number change was -73.8%. Moreover, the AC50 under setting [1] is 25.9 µM [falling, partial curve, poor fit]. Under setting [2], the half-maximal activity concentration (AC50) is 23.1 µM [falling, single point].
As to `Nc1nnc(SCC(=O)Nc2cccc3ccccc23)s1`, the cell number change was 3.85%.
The same measure, in the same setting: for `Cc1cc(/C=C2\SC(=O)N(C)C2=O)c(C)n1-c1ccc(S(N)(=O)=O)cc1` the value was 10.8%.
As to `CCc1c(C)c(C#N)c2nc3ccccc3n2c1NCCN(C)C`, the cell number change is -2.83%. Besides, under setting [1], the AC50 is 6.51 µM [rising, single point]. The AC50 under setting [2] is 6.51 µM [rising, single point].
For `Fc1cccc(CSc2ccc3nnc(-c4ccccn4)n3n2)c1`, the cell number change is -6.45%. For the same compound, under setting [2], the AC50 was 1.16 µM [rising, single point].
As for `CCCn1c(O)c(N=NC(=O)CNC(=O)c2ccncc2)c2ccccc21`, the cell number change is -0.885%. Further, under setting [2], the AC50 was 29.1 µM [falling, single point].
Regarding `CN(C(=O)c1cc2ccccc2oc1=O)C1(C)CCS(=O)(=O)C1` (stereo unspecified), the cell number change came out at 34.8%. Also, under setting [1], the AC50 is 29.1 µM [rising, single point].
With `CN(C)C(=S)NC1(C)CCS(=O)(=O)C1` (stereo unspecified), the cell number change is -26.5%. Besides, the concentration at half-maximal activity (AC50) under setting [1] is 0.0164 µM [falling, partial curve, poor fit]. For the same compound, the AC50 under setting [2] was 0.231 µM [falling, full curve].
Regarding `C/C(CCc1ccc2c(c1)OCO2)=N\NC(=S)NC(C)C`, the cell number change stood at 31.2%. Moreover, under setting [1], the AC50 is 2.06 µM [rising, partial curve]. Further, under setting [2], the AC50 is 8.2 µM [rising, partial curve, poor fit].
`CCOC(=O)C1CCN(C(=O)COC(=O)C2CCN(S(=O)(=O)c3ccc4c(c3)OCCO4)CC2)CC1`: the cell number change was 66.3%. Also, the half-maximal activity concentration (AC50) under setting [1] was 20.6 µM [rising, partial curve, poor fit].
`O=C(COc1ccc2c3c(c(=O)oc2c1)CCCC3)N1CCN(c2ccccc2)CC1`: the cell number change is -12.1%. Further, the half-maximal activity concentration (AC50) under setting [2] was 0.651 µM [falling, partial curve, poor fit].

The record behind these values is PubChem BioAssay AID2685 (National Center for Advancing Translational Sciences (NCATS), 2010).
